The other results are listed elsewhere or left out.
Legend:
Assay in all cases: log2 fold change, soluble protein after heating vs DMSO (PISA); higher = thermal stabilisation; K562 lysate, 10 uM; active = over 0.2 and 3.5 SD of the protein, either way, in both replicates (recomputed)
[1] = compound: C1=CC=C(C=C1)[C@H](COC2=CC3=C(C=C2)NC(=O)N3)NC(=O)C4=CC=CN(C4=O)CC5=CC(=C(C=C5)F)F
Outline: (§1)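 Dounce homogenisation of K562 pellets in PBS pH 7.4 with 1 mM MgCl2 produced a crude extract, used at 1 mg/mL protein. Exposure to 10 μM compound lasted 30 min, and aliquots were then heated for 3 min across 48°C-58°C, pooled and brought to 0.5% NP-40 at 4°C. The supernatant after 21,000xg for 90 min was quantified by TMTpro 16plex LC-MS/MS with channel sums equalised. Duplicate values are given as log-two fold change in thermal stability relative to solvent controls.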

Amino acid sequences for entries named in this document (tags omitted). A change or cut given only in a name is not applied to a line headed by its entry.
UniProt Q9UJ70, whole entry, looked up: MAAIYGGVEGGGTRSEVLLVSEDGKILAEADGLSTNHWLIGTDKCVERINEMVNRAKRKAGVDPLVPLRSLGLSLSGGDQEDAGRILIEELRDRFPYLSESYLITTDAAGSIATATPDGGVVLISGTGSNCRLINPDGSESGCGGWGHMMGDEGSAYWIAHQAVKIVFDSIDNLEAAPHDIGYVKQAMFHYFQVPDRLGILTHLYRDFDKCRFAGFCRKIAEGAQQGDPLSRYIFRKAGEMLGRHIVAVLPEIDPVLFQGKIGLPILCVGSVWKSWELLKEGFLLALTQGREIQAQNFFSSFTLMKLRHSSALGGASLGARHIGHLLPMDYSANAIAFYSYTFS
UniProt P41227: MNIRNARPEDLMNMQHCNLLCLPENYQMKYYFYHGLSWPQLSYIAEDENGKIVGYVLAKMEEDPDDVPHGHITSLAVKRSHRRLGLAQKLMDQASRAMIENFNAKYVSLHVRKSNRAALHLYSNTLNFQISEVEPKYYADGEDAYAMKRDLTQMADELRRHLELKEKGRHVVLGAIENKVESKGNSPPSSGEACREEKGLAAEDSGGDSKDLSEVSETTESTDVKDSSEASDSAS
UniProt Q13459: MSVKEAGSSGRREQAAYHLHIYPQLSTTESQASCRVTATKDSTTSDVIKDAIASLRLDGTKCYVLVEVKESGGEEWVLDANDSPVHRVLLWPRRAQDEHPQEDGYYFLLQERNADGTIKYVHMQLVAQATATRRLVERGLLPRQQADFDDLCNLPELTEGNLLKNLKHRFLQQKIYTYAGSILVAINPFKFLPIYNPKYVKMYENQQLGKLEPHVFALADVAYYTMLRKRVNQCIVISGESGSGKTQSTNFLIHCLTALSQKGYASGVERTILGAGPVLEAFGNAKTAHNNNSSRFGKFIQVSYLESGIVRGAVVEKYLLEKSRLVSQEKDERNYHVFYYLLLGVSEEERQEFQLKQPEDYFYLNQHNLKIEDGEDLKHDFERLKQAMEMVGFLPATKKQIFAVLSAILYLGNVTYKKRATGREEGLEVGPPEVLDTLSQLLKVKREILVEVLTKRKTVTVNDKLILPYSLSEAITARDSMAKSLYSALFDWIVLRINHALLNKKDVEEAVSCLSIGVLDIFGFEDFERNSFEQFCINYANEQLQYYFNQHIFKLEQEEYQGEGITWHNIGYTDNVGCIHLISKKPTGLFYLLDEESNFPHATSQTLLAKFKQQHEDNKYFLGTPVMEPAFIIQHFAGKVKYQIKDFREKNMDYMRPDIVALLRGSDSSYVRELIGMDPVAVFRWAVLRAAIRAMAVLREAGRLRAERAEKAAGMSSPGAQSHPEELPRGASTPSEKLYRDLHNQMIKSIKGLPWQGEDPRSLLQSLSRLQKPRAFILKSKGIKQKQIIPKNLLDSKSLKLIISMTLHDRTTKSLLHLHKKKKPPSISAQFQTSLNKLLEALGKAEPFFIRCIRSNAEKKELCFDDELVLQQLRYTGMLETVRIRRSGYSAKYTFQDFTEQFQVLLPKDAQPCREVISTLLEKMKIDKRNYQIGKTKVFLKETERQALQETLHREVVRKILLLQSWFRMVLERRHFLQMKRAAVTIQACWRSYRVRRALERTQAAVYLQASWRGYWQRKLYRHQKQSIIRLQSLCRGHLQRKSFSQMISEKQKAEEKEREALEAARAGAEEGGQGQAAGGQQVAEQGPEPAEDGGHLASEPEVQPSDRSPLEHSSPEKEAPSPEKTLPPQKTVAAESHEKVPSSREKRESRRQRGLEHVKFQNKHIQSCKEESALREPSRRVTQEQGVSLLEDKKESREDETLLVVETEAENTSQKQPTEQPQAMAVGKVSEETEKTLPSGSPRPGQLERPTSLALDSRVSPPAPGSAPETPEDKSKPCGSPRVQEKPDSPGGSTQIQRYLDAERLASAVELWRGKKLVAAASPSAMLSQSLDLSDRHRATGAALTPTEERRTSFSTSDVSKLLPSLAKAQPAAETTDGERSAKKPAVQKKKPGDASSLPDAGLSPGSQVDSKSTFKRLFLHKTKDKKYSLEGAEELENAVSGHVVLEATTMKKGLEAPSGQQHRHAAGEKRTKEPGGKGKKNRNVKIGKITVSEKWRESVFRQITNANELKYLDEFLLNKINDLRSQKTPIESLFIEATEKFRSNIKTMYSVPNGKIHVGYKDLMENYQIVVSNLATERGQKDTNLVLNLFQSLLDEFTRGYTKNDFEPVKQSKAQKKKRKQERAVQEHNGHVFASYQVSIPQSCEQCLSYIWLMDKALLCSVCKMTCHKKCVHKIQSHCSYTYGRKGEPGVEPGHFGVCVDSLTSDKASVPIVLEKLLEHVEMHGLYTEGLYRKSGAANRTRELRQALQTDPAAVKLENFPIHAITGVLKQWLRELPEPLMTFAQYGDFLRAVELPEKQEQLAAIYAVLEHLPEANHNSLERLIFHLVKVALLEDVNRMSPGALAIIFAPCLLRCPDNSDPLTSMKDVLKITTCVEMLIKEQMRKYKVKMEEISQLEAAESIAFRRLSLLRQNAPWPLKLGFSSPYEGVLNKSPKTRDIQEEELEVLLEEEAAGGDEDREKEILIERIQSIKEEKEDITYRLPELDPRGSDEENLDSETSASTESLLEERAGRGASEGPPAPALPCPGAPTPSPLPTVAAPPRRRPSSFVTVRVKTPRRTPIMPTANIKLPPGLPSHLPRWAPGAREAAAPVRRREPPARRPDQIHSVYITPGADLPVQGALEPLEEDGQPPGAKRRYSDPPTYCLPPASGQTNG
UniProt Q15788: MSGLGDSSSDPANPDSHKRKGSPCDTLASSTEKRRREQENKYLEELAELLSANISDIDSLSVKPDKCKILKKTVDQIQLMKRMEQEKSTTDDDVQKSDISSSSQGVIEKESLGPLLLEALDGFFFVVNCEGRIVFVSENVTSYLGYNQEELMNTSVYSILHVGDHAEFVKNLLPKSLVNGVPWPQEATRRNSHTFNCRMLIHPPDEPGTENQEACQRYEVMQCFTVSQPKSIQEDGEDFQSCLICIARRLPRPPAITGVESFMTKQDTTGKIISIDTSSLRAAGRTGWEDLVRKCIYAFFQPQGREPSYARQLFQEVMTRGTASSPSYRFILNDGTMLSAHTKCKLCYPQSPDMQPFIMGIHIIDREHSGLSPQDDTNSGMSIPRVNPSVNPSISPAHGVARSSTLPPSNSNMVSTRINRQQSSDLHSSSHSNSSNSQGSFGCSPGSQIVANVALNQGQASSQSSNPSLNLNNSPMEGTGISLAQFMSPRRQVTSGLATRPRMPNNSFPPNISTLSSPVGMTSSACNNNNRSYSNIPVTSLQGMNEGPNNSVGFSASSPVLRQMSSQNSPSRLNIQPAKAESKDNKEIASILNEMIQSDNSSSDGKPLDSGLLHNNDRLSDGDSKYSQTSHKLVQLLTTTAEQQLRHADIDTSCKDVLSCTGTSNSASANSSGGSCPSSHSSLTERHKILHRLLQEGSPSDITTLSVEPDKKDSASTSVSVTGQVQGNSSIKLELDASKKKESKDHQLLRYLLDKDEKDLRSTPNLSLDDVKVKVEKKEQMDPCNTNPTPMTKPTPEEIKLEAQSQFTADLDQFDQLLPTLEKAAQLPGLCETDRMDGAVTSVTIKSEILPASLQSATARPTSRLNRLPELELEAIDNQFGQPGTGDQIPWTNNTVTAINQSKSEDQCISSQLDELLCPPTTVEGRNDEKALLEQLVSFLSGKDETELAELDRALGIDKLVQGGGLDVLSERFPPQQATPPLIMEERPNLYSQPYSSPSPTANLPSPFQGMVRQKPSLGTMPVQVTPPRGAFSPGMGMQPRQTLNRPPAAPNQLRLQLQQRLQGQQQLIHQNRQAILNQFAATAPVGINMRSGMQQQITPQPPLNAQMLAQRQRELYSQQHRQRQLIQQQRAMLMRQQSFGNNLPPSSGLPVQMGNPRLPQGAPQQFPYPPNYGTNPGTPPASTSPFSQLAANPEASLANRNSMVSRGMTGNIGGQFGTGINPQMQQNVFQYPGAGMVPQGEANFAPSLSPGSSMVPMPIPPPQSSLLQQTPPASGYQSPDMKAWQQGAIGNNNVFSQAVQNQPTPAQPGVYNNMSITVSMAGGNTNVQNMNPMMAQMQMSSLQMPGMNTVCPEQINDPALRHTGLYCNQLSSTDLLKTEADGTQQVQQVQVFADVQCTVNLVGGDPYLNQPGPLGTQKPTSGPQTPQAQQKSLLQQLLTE
UniProt P35580, whole entry, looked up: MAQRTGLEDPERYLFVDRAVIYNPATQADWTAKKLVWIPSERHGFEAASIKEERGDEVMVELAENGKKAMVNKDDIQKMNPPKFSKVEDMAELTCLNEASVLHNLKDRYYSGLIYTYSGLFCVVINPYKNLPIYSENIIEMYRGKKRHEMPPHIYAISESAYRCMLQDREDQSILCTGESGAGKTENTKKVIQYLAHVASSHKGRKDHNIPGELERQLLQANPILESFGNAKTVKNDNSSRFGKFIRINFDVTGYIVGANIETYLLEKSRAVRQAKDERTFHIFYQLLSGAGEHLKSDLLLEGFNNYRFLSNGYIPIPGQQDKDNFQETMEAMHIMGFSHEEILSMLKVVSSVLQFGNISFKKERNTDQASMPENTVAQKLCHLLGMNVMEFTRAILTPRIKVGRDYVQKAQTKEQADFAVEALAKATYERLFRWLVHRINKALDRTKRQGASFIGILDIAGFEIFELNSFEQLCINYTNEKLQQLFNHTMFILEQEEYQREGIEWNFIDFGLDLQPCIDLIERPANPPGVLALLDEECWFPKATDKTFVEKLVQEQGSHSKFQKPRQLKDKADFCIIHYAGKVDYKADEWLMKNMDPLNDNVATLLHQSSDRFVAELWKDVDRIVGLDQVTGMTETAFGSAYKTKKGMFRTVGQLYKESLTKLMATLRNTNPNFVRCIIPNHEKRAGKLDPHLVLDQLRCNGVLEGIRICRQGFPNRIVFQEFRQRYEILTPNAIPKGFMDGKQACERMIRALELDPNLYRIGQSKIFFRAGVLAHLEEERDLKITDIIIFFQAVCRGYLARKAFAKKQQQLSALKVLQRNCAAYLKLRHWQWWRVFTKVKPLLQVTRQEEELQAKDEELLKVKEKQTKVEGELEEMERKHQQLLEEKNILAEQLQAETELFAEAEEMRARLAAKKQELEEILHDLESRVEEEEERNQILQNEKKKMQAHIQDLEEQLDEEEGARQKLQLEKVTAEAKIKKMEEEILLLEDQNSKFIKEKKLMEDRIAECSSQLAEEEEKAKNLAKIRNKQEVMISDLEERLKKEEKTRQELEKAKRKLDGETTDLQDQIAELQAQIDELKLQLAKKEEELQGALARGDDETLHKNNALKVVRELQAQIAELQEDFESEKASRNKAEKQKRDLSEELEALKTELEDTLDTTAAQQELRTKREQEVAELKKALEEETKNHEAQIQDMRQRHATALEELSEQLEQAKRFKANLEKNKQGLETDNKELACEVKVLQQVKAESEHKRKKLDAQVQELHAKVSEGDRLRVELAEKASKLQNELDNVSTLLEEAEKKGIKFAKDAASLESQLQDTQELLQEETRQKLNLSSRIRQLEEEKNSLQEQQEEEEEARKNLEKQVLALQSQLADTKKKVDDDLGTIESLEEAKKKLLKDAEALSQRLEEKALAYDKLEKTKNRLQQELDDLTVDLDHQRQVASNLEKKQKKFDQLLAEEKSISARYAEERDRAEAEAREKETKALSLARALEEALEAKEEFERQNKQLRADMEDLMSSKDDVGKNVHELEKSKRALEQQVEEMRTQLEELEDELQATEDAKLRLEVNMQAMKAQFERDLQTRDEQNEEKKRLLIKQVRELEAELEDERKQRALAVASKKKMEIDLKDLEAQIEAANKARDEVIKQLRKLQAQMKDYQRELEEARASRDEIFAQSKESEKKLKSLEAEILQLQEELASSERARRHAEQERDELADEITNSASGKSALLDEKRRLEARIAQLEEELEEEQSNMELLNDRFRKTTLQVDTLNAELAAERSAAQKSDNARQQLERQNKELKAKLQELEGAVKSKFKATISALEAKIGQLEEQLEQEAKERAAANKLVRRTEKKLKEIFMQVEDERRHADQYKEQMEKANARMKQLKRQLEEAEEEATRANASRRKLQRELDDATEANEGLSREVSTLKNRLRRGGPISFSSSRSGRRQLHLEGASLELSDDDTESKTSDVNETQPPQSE
UniProt Q4G0N4: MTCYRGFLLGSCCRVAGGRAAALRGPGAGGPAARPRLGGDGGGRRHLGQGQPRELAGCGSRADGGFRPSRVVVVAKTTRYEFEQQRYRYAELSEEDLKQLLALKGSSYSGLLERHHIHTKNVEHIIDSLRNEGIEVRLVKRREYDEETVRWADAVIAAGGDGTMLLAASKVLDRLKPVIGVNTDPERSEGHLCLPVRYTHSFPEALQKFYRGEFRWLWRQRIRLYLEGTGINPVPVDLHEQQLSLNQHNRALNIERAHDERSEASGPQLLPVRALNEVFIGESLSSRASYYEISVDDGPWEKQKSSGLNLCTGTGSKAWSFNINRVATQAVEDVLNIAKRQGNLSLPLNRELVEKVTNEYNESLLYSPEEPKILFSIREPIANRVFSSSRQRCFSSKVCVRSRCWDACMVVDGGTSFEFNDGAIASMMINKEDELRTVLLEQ

[2] = compound: CC1=C(SC2=C1C(=N[C@H](C3=NN=C(N32)C)CC(=O)N)C4=CC=C(C=C4)Cl)C
Outline: as §1

[3] = compound: CC1=C2C(=CC=C1)N=C(N(C2=O)C3=CC=CC=C3C)CN4C=NC5=C(N=CN=C54)N
Outline: as §1

[4] = compound: Cc1sc2c(c1C)C(c1ccc(Cl)cc1)=N[C@@H](CC(=O)OC(C)(C)C)c1nnc(C)n1-2
Outline: as §1

[5] = compound: c1ccc([C@@H]2C[C@H]2NC2CCNCC2)cc1
Outline: as §1

Measured: log2 fold change

NAA50 (UniProt Q9GZZ1)
inactive: [1] -0.02 | [2] 0.007 | [3] 0.017 | [4] 0.034 | [5] 0.03

NAPG (UniProt Q99747)
inactive: [1] 0.016 | [2] -0.001 | [3] -0.013 | [4] 0.012 | [5] 0.037

NAGK isoform 2 (UniProt Q9UJ70)
inactive: [1] 0 | [2] 0.003 | [3] -0.004 | [4] -0.011 | [5] -0.05

NAA10 (UniProt P41227)
inactive: [1] -0.011 | [2] 0.025 | [3] 0.001 | [4] 0.02 | [5] 0.053

NAPRT (UniProt Q6XQN6)
inactive: [1] -0.021 | [2] 0.009 | [3] -0.024 | [4] 0.038 | [5] 0.023

MYO9B (UniProt Q13459)
inactive: [1] 0.012 | [2] 0.022 | [3] -0.016 | [4] -0.007 | [5] -0.017

NCOA6 (UniProt Q14686)
inactive: [1] -0.021 | [2] 0.028 | [3] -0.021 | [4] -0.008 | [5] -0.007

NAA40 (UniProt Q86UY6)
inactive: [1] 0.077 | [2] -0.017 | [3] -0.031 | [4] -0.049 | [5] 0.151

NARS2 (UniProt Q96I59)
inactive: [1] 0.013 | [2] 0.024 | [3] 0.092 | [4] 0.053 | [5] -0.05

NCOA1 (UniProt Q15788)
inactive: [1] -0.028 | [2] 0.007 | [3] -0.059 | [4] 0.021 | [5] -0.057

MZT2A (UniProt Q6P582)
inactive: [1] 0.012 | [2] -0.009 | [3] 0.06 | [4] 0.101 | [5] 0.064

MYSM1 (UniProt Q5VVJ2)
inactive: [1] 0.001 | [2] 0 | [3] 0.034 | [4] -0.009 | [5] -0.052

MYH10 isoform 3 (UniProt P35580)
inactive: [1] 0.003 | [2] 0.006 | [3] 0.022 | [4] 0.005 | [5] 0.01

2 entries drawn at random from the list so far, as already listed:
MYH10 isoform 3 (UniProt P35580)
inactive: [1] 0.003 | [2] 0.006 | [3] 0.022 | [4] 0.005 | [5] 0.01

NCOA1 (UniProt Q15788)
inactive: [1] -0.028 | [2] 0.007 | [3] -0.059 | [4] 0.021 | [5] -0.057

Later entries:

NCALD (UniProt P61601)
inactive: [1] -0.018 | [2] 0.01 | [3] -0.005 | [4] 0.054 | [5] 0.025

MYO18A (UniProt Q92614)
inactive: [1] 0.016 | [2] 0.011 | [3] 0.006 | [4] 0.03 | [5] -0.003

NADK2 (UniProt Q4G0N4)
inactive: [1] 0.057 | [2] 0.007 | [3] -0.006 | [4] 0.045 | [5] -0.012
